The assay concerns the target Recombinant autotaxin (Homo sapiens, UniProt Q13822). The assay can be described thus: Autotaxin assay (Amplex Red, LPC substrate). To be noted: read-out: IC50 value, Amplex Red detection, values given as upper bounds. On the procedure: Autotaxin activity is measured indirectly by means of Amplex Red Reagent. In this course, Amplex Red is measured as fluorogenic indicator for generated H2O2. Autotaxin converts substrate lysophosphatidylcholine (LPC) to phosphocholine and lysophosphatidylic acid (LPA). After the conversion phosphocholine is reacted with alkaline phosphatase to obtain inorganic phosphate and choline. During the next step choline is oxidized with choline oxidase to yield betaine, whereby H2O2 is generated. H2O2 reacts with Amplex Red Reagent in the presence of peroxidase (Horseradish peroxidase) in an 1:1 stochiometry and yields highly fluorescent resorufin. The generated fluorescence is measured in a reaction-dependent kinetic mode in order to enable subtraction of fluorescence signals of possible other fluorescent compounds that are not part of the reaction from total measured fluorescence. […]
Thereafter, the reaction is started through the addition of 5 μL-a-lysophosphatidyl-choline (LPC), whereby the final concentration of LPC is 75 μM. […] The fluorescence is immediately measured at a wavelength of 612 nm with an excitation wavelength of 485 nm in a “Tecan Ultra multimode” fluorescence reader. The activity of autotaxin is indirectly calculated via the amount of detected generated H2O2. […]
IC50 values were calculated on normalized data. […]

Structures were worked out from names or drawings and are uncertain.

`O=C(NC1CCN(C2CCN(C(=O)CCc3ccc(C(F)(F)F)cc3)CC2)C1)c1ccc2[nH]nnc2c1` (stereo not shown): the IC50 (commonly the concentration that inhibits the measured activity by half) is less than 10 µM.

Source of the values: patent US9452997B2, “Piperidine and piperazine derivatives as autotaxin inhibitors” (Merck Patent GmbH, priority 2009, dated 2016).
